Results published in patent US20240382563A1.
These are yes or no findings as the source states them, for the method shown. In cells and extracts the contact can be indirect. Some entries that bind do so weakly or less than the wild type.

Amino acid sequences for entries named in this document (tags omitted). Residues count along the entry.
UniProt Q62432, residues 2-467: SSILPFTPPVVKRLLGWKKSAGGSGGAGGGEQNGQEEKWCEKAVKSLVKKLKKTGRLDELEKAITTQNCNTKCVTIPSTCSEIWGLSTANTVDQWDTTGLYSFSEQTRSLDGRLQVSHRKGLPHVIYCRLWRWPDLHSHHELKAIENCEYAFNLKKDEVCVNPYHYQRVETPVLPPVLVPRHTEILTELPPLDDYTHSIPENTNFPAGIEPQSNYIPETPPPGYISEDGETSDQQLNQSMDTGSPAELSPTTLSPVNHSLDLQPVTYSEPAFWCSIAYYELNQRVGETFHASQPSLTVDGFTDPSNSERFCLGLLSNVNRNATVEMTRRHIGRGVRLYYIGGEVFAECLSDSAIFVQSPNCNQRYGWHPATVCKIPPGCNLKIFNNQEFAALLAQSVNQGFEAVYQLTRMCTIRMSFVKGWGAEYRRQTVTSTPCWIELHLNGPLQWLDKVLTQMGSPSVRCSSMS
UniProt Q8BUN5, residues 2-425: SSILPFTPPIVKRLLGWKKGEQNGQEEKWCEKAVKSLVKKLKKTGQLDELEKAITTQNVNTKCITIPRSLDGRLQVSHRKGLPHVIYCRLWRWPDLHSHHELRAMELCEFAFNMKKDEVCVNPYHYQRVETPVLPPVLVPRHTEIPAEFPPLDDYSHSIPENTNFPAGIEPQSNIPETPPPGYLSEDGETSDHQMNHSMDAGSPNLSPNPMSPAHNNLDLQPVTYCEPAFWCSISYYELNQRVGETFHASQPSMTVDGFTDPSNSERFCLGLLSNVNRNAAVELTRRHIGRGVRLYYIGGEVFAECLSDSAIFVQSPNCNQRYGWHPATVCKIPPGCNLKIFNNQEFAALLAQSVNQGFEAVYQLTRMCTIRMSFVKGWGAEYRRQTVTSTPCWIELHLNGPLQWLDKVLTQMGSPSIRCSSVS

T1: RB (retinoblastoma polypeptide), endogenous mouse protein in MEFs (mouse) (UniProt P13405)
T1 sequence (looked up): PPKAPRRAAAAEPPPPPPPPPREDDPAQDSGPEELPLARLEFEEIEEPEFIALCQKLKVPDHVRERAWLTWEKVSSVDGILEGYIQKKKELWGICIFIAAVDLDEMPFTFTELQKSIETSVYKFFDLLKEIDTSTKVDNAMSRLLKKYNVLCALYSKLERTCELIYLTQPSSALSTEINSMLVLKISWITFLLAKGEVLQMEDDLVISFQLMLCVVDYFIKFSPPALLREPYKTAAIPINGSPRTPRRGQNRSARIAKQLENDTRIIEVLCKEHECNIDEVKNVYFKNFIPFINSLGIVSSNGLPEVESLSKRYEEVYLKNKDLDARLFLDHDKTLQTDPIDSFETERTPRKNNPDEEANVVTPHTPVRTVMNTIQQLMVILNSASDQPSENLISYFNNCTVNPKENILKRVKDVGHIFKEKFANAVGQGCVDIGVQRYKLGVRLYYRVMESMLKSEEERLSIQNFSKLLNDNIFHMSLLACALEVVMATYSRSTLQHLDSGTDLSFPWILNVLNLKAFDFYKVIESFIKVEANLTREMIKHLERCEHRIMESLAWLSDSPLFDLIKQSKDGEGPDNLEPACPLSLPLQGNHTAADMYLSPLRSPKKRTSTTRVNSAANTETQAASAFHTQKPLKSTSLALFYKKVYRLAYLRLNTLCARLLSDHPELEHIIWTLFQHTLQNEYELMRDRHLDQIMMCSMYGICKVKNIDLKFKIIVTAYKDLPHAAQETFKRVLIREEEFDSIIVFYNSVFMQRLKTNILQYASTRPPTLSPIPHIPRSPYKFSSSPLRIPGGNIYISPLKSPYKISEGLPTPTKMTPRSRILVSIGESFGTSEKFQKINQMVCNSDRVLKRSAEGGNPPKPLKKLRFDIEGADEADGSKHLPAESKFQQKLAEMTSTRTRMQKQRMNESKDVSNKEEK


Legend:
[1] = molecular target: T1, RB (retinoblastoma polypeptide), endogenous mouse protein in MEFs (mouse); experiment: co-immunoprecipitation from chromatin fraction of D4 P21-OE MEFs, western blot probed for RB
[2] = molecular target: T1, RB (retinoblastoma polypeptide), endogenous mouse protein in MEFs (mouse); experiment: co-immunoprecipitation from IR-senescent MEFs, western blot probed for RB

binding [1] | binding [2] | Molecule
binds | binds | SMAD2, endogenous mouse protein in MEFs (from UniProt Q62432 2-467)
binds | binds | SMAD3, endogenous mouse protein in MEFs (from UniProt Q8BUN5 2-425)
binds | binds | STAT1, endogenous mouse protein in MEFs (protein, UniProt P42225 2-749, looked up) SQWFELQQLDSKFLEQVHQLYDDSFPMEIRQYLAQWLEKQDWEHAAYDVSFATIRFHDLLSQLDDQYSRFSLENNFLLQHNIRKSKRNLQDNFQEDPVQMSMIIYNCLKEERKILENAQRFNQAQEGNIQNTVMLDKQKELDSKVRNVKDQVMCIEQEIKTLEELQDEYDFKCKTSQNREGEANGVAKSDQKQEQLLLHKMFLMLDNKRKEIIHKIRELLNSIELTQNTLINDELVEWKRRQQSACIGGPPNACLDQLQTWFTIVAETLQQIRQQLKKLEELEQKFTYEPDPITKNKQVLSDRTFLLFQQLIQSSFVVERQPCMPTHPQRPLVLKTGVQFTVKSRLLVKLQESNLLTKVKCHFDKDVNEKNTVKGFRKFNILGTHTKVMNMEESTNGSLAAELRHLQLKEQKNAGNRTNEGPLIVTEELHSLSFETQLCQPGLVIDLETTSLPVVVISNVSQLPSGWASILWYNMLVTEPRNLSFFLNPPCAWWSQLSEVLSWQFSSVTKRGLNADQLSMLGEKLLGPNAGPDGLIPWTRFCKENINDKNFSFWPWIDTILELIKNDLLCLWNDGCIMGFISKERERALLKDQQPGTFLLRFSESSREGAITFTWVERSQNGGEPDFHAVEPYTKKELSAVTFPDIIRNYKVMAAENIPENPLKYLYPNIDKDHAFGKYYSRPKEAPEPMELDDPKRTGYIKTELISVSEVHPSRLQTTDNLLPMSPEEFDEMSRIVGPEFDSMMSTV
binds | binds | STAT6, endogenous mouse protein in MEFs (protein, UniProt P52633 2-837, looked up) SLWGLISKMSPEKLQRLYVDFPQRLRHLLADWLESQPWEFLVGSDAFCYNMASALLSATVQRLQATAGEQGKGNSILPHISTLESIYQRDPLKLVATIRQILQGEKKAVIEEFRHLPGPFHRKQEELKFTTALGRLQHRVRETRLLRESLQQGAKTGQVSLQNLIDPPVNGPGPSEDLATMLQGTVGDLEATQALVLKRIQIWKRQQQLAGNGTPFEESLAGLQERCESLVEIYSQLQQEIGAASGELEPKTRASLISRLDEVLRTLVTSSFLVEKQPPQVLKTQTKFQAGVRFLLGLQFLGTSAKPPMVRADMVTEKQARELSLAQGPGTGVESTGEIMNNTVPLENSIPSNCCSALFKNLLLKKIKRCERKGTESVTEEKCAVLFSTSFTLGPNKLLIQLQALSLPLVVIVHGNQDNNAKATILWDNAFSEMDRVPFVVAERVPWEKMCETLNLKFMAEVGTSRGLLPEHFLFLAQKIFNDNSLSVEAFQHRCVSWSQFNKEILLGRGFTFWQWFDGVLDLTKRCLRSYWSDRLIIGFISKQYVTSLLLNEPDGTFLLRFSDSEIGGITIAHVIRGQDGSSQIENIQPFSAKDLSIRSLGDRIRDLAQLKNLYPKKPKDEAFRSHYKPEQMGKDGRGYVSTTIKMTVERDQPLPTPEPQMPAMVPPYDLGMAPDASMQLSSDMGYPPQSIHSFQSLEESMSVLPSFQEPHLQMPPNMSQITMPFDQPHPQGLLQCQSQEHAVSSPEPMLCSDVTMVEDSCLTQPVGGFPQGTWVSEDMYPPLMPPTEQDLTKLLLENQGEAGGSLGSQPLLQPSPYGQSGISLSHLDLRTNPSW
